# Reference: US8507446B2, “Use of PEDF-derived polypeptides for treating liver cirrhosis” (MacKay Memorial Hospital, priority 2011, dated 2013)
# Some results were stated once for a whole list of compounds, not compound by compound.
# System: liver-derived progenitor cells (LDPCs) in primary rat liver cells
# Experiment: Clonogenic capacity of liver cells (LDPC colony formation)
# Format: cell-based
# Conditions: 4.5 nM PEDF or 50 nM 44-mer
# Description: Liver cells from Sprague Dawley rats were harvested by 2-step in situ collagenase perfusion technique. The cells were then washed in phosphate buffered saline and centrifuged (50 g for 5 minutes) twice at room temperature. The cells were not further subjected to any fractionation as previously described (Sahin M B et al., Liver Transpl. 2008 14(3):333-45). […]
# To verify the function of 44-mer PEDF, primary rat liver cells were isolated in accordance with steps described above and cultivated (about 1×10^5 per well of 6-well plate; 1×10^4 cells/cm^2) in a conventional basal medium, which was further supplemented with 4.5 nM PEDF, 50 nM 34-mer PEDF, 50 nM 44-mer PEDF or 10% FBS. […] After being placed in culture for 11 days, clonogenic capacity of liver cells was continuously monitored by phase-contrast microscopy. […]
substance,measurement,value
Ac-VLLSPLSVATALSALSLGAEQRTESIIHRALTTDLISSPDIHGT-NH2 [44-mer PEDF],cells per LDPC colony,25-150 cells
